Library screen at single concentrations

By UniProt entry, the sequences of proteins in these tests, tags left out. Residues count along the entry.
UniProt Q8IDJ8, 1-583: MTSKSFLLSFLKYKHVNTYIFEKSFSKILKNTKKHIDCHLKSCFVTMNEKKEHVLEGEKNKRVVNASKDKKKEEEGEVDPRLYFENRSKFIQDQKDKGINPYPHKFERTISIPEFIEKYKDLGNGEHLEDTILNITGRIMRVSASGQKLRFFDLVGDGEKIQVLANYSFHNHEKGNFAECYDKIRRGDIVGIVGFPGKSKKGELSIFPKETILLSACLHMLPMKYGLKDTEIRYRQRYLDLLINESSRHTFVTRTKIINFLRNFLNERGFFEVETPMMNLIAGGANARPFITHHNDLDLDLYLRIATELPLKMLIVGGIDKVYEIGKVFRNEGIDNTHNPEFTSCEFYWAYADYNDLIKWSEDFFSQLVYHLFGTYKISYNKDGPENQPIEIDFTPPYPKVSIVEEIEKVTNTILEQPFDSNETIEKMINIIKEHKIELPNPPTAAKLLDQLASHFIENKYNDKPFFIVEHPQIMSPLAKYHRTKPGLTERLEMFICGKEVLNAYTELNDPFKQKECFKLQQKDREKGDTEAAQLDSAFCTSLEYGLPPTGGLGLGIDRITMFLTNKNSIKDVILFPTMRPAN

T. brucei: 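Whole-parasite assay of Trypanosoma brucei over 72 hours; the read-out is not stated. Tested at 30 µM. The record gives no direction; compounds that gave an IC50 in retests scored well above the rest, so higher reads as stronger inhibition. Values scatter widely below zero; nearly all retest evidence comes from the higher of the two concentrations used. About 64,000 compounds were tested under these conditions; 1.5% (about 940) showed 50% or more at least once.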
PfKRS1: 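Enzyme assay of the cytosolic lysyl-tRNA synthetase in 384-well plates, read by luminescence. Target: Lysine-tRNA ligase, Plasmodium falciparum 3D7 (UniProt Q8IDJ8). Tested at 30 µM. Higher reads as stronger inhibition, judged from the few compounds that gave an IC50. Of about 69,000 compounds tested this way, about 49 (0.071%) reached 50% or more in at least one test.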

Results are given as percent effect.
The record does not define 0% and 100%; most values in the screen are far below 50% and negative numbers occur (in some assays of this library far below -100).
Compounds were drawn at random from those tested, without regard to their results.

Cc1ccc([C@@H]2CN(C(=O)c3ccoc3C)C[C@H]2NC(=O)C2CC2)cc1 gave T. brucei: -34.89%; PfKRS1: -1.294%. With CCN1CCC2(CC1)CN(CCO)c1ccccc12 the screen gave T. brucei: -65.36%; PfKRS1: 2.805%. For CS(=O)(=O)N1CCOCC2(CCN(c3cnccn3)CC2)C1 the result was T. brucei: -48.36%; PfKRS1: 4.659%. Result for Cn1cc(S(=O)(=O)N2CCCC2Cn2ccnc2)cc1C(N)=O (stereo not drawn) was T. brucei: -18.43%; PfKRS1: 0.8797%. For Cc1ccccc1N1CCCN(C(=O)CCCn2ccnc2C)CC1 the result was T. brucei: -3.124%; PfKRS1: 2.085%. Result for CCOc1ccc(CN2C(=O)CC(CC)(CC)C2=O)nc1 was T. brucei: -15.53%; PfKRS1: -1.883%. Result for O=C(O)C(F)(F)F.[H][C@@]12COC[C@H](C(=O)Nc3cnccn3)[C@]1([H])CN(C1CCCC1)C2 was T. brucei: -3.158%. Result for c1cc(CN2CCCN(c3ccc4cc[nH]c4n3)CC2)ccn1 was T. brucei: -7.478%; PfKRS1: -0.06797%.

With CC(=O)N1CCN(C(=O)NCc2ccccc2Cn2cncn2)CC1 the screen gave T. brucei: -8.49%; PfKRS1: 4.845%. Cc1ccc(S(=O)(=O)NC2CCC(=O)NC2)cc1Br (stereo not drawn) read T. brucei: -6.124%; PfKRS1: 1.177%. CC1N(C)C(=O)COC12CCN(Cc1ccsc1)CC2 (stereo not drawn) gave PfKRS1: 0.8765%. CN(CCCc1cc(-c2cccc(F)c2)n[nH]1)C(=O)Cn1cncn1 read T. brucei: 4.297%; PfKRS1: 6.351%. Cc1nn(C)c(C)c1C1CCCN1c1ncnc2[nH]ccc12 (stereo not drawn) read T. brucei: -24.35%; PfKRS1: 5.136%. Result for CCn1cc(S(=O)(=O)N(C)Cc2c(Br)cnn2CC)c(C)n1 was T. brucei: 20.93%; PfKRS1: 9.273%. With Cc1noc(C)c1CC(=O)NCC(C(C)C)N1CCOCC1 (stereo not drawn) the screen gave T. brucei: -4.584%; PfKRS1: 3.426%. CN(C)c1nc(N)nc(CSCCC(=O)Nc2cccc(Cl)c2)n1 gave T. brucei: -37.9%; PfKRS1: 1.895%.

With Cc1cnc(C)c(N2CCCC(C/C=C/c3ccccc3)(C(=O)O)C2)n1 (stereo not drawn) the screen gave T. brucei: 2.544%; PfKRS1: 3.896%. Result for CN1CCN(C2CCOCC2)CC12CCC(=O)N(CC1CC1)CC2 (stereo not drawn) was T. brucei: 22.4%; PfKRS1: 4.35%. For [H][C@@]12CC[C@H](Oc3cccc(F)c3)[C@]1([H])CN(C(=O)c1ccnnc1)C2 the result was T. brucei: -4.054%. Result for Cc1cccc(C2(C(=O)NCCCn3cccn3)CC2)c1 was T. brucei: -75.17%; PfKRS1: 0.8462%. CC(C)(C)CN[C@@H]1CO[C@H](CNC(=O)c2ccncc2)[C@H]1O read T. brucei: -17.35%; PfKRS1: 7.851%. With Cc1cc(C(=O)Nc2cccn(Cc3ccc(F)cc3)c2=O)no1 the screen gave T. brucei: -2.912%; PfKRS1: 0.3334%. CC(=O)c1cccc(NC(=O)NCCCc2nc(C(C)C)no2)c1 read T. brucei: 0.1199%; PfKRS1: 4.828%. Result for CC(=O)N1CCC2(CCN(Cc3ccccn3)C2=O)C1.O=C(O)C(F)(F)F (stereo not drawn) was T. brucei: 1.584%.

CCCc1nc(N(C)CCN2CCCCCC2)c2cnn(C)c2n1 gave T. brucei: -110.1%; PfKRS1: 1.254%. Result for COc1cccc(CN(Cc2ncc[nH]2)Cc2ccco2)c1.O=C(O)CC(O)(CC(=O)O)C(=O)O was T. brucei: -10.96%. CCN(CC1CCOC1)C(=O)c1ccn(-c2ccc(OC)cc2)n1 (stereo not drawn) gave T. brucei: -12.33%; PfKRS1: 1.054%. Cc1cnn(CC(C)NCc2ccc(OCc3ccncc3)cc2)c1 (stereo not drawn) read T. brucei: 11.45%; PfKRS1: -0.5081%. For CNC(=O)CS(=O)(=O)C1CCN(S(=O)(=O)c2cccnc2)CC1 the result was T. brucei: 7.435%; PfKRS1: 2.835%. Result for CCc1c(C)nc2cc(C3CCN(Cc4ccc(F)cc4)C3)nn2c1O (stereo not drawn) was T. brucei: 18.45%; PfKRS1: 1.737%. With CC(C)(C)c1cnc(CN2CCC(NC(=O)NC3CCCCC3)CC2)o1 the screen gave T. brucei: -19.04%; PfKRS1: 3.874%. Nc1cc2c(nn1)CCN(C(=O)c1cccnc1Oc1ccccc1)C2 gave T. brucei: -9.501%; PfKRS1: 8.634%.

Cc1ccccc1C(=O)N1CCC2(CCCN2CCN(C)C)CC1.O=C(O)C(F)(F)F.O=C(O)C(F)(F)F gave T. brucei: -7.677%. For c1ccc(Cc2noc(CN3CCCCC3C3OCCO3)n2)cc1 (stereo not drawn) the result was T. brucei: -15.41%; PfKRS1: 8.179%. With O=C(NCC1CCOC1)Nc1ccc(Oc2ccc(F)cc2)nc1 (stereo not drawn) the screen gave T. brucei: 15.37%; PfKRS1: -0.5555%. With CC(C)c1ccc(-n2nnc(C(=O)O)c2-c2ccccn2)cc1 the screen gave T. brucei: -39.31%; PfKRS1: 2.134%.

Some entries from above, unchanged:

SMILES,T. brucei,PfKRS1
CCOc1ccc(CN2C(=O)CC(CC)(CC)C2=O)nc1,-15.53,-1.883
Cc1ccc(S(=O)(=O)NC2CCC(=O)NC2)cc1Br (stereo not drawn),-6.124,1.177
CC(C)(C)CN[C@@H]1CO[C@H](CNC(=O)c2ccncc2)[C@H]1O,-17.35,7.851
CCN(CC1CCOC1)C(=O)c1ccn(-c2ccc(OC)cc2)n1 (stereo not drawn),-12.33,1.054

From ChEMBL document CHEMBL3988442, “University of Dundee, Small-Polar-MMV Screening Library” (2021).